{"sequences": {"note": "Sequences of proteins named here, by UniProt entry; tags and fusion partners are left off.", "UniProt P84084": "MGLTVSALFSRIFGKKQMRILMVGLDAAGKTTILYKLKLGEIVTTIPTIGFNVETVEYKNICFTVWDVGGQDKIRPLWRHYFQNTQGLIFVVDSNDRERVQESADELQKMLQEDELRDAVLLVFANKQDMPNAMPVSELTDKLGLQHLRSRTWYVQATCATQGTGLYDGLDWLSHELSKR", "UniProt Q9D1G1": "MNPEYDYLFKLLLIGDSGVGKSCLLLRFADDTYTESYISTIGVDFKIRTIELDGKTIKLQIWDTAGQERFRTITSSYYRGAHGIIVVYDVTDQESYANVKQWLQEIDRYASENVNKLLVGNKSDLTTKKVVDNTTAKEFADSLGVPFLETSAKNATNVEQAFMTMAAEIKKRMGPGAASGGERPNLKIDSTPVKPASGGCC", "UniProt P53994": "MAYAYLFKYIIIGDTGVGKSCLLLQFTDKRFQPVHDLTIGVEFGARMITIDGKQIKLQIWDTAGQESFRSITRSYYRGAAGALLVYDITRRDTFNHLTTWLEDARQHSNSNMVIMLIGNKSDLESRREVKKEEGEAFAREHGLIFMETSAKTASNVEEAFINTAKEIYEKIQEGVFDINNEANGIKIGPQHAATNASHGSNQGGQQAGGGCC"}, "source": "paper doi:10.1101/2024.01.08.574743", "molecules": {"B1": {"name": "Endophilin B2 (protein, UniProt Q8R3V5 1-400)", "chain": "MDFNMKKLASDAGIFFTRAVQFTEEKFGQAEKTELDAHFENLLARADSTKNWTERILRQTEVLLQPNPSARVEEFLYEKLDRKVPSRVTNGELLAQYMAEAASELGPSTPYGKTLIKVSEAEKRLGAAERDFIHTASLSFLTPLRNFLEGDWKTISKERRLLQNRRLDLDACKARLKKAKAAEAKATTVPDFQETRPRNYILSASASALWNDEVDKAEQELRVAQTEFDRQAEVTRLLLEGISSTHVNHLRCLHEFVKSQTTYYAQCYRHMLDLQKQLGSSQGAIFPGTFVGTTEPASPPLSSTSPTTTAATMPVVPTGAVLAPPEEAALCLEEVAPPASGTRKARVLYDYEAADSSELALLADELITVYSLPGMDPDWLIGERGNKKGKVPVTYLELLS"}}, "key": {"[1]": {"biological_target": "T1, GST-DNAJ-myc-TAT (recombinant sacsin DNAJ domain, residues 4316-4420 of sacsin) (mouse | not stated) (UniProt Q9JLC8)", "T1 sequence": "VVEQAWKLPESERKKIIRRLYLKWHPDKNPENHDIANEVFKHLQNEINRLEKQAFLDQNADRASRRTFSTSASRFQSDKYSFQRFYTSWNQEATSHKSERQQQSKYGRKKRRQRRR", "assay": "affinity purification with mass spectrometry"}, "[2]": {"biological_target": "T1, GST-DNAJ-myc-TAT (recombinant sacsin DNAJ domain, residues 4316-4420 of sacsin) (mouse | not stated)", "assay": "affinity purification with mass spectrometry", "remark": "listed apart in the source"}}, "note": "Where two headings read alike, the source gives them in different places. Results are given in words; binding and its absence hold for the method and conditions named. In cells and extracts the contact can be indirect. Here binding means that the protein was enriched with, or labelled near, the bait; the list need not be complete. Where a sequence is shown, tags or fusion partners need not be part of it.", "data": [{"molecule": "ARF5 (from UniProt P84084 1-180)", "values": [{"measurement": "binding", "setting": "[1]", "value": "binds"}]}, {"molecule": "Rab1b (from UniProt Q9D1G1 1-201)", "values": [{"measurement": "binding", "setting": "[1]", "value": "binds"}]}, {"molecule": "Rab2a (from UniProt P53994 1-212)", "values": [{"measurement": "binding", "setting": "[1]", "value": "binds"}]}, {"molecule": "B1", "values": [{"measurement": "binding", "setting": "[2]", "value": "binds"}]}]}
